Laboratory results from paper PMC7948964.
Results are given in words; binding and its absence hold for the method and conditions named. Binding seen in cells or lysates may run through a third protein. Some binding calls cover weakened binding; strength is not graded here. For part of these data: Tags and fused reporters may be left off the sequences shown.

Sequences of proteins named here, by UniProt entry; tags and fusion partners are left off.
UniProt O95714: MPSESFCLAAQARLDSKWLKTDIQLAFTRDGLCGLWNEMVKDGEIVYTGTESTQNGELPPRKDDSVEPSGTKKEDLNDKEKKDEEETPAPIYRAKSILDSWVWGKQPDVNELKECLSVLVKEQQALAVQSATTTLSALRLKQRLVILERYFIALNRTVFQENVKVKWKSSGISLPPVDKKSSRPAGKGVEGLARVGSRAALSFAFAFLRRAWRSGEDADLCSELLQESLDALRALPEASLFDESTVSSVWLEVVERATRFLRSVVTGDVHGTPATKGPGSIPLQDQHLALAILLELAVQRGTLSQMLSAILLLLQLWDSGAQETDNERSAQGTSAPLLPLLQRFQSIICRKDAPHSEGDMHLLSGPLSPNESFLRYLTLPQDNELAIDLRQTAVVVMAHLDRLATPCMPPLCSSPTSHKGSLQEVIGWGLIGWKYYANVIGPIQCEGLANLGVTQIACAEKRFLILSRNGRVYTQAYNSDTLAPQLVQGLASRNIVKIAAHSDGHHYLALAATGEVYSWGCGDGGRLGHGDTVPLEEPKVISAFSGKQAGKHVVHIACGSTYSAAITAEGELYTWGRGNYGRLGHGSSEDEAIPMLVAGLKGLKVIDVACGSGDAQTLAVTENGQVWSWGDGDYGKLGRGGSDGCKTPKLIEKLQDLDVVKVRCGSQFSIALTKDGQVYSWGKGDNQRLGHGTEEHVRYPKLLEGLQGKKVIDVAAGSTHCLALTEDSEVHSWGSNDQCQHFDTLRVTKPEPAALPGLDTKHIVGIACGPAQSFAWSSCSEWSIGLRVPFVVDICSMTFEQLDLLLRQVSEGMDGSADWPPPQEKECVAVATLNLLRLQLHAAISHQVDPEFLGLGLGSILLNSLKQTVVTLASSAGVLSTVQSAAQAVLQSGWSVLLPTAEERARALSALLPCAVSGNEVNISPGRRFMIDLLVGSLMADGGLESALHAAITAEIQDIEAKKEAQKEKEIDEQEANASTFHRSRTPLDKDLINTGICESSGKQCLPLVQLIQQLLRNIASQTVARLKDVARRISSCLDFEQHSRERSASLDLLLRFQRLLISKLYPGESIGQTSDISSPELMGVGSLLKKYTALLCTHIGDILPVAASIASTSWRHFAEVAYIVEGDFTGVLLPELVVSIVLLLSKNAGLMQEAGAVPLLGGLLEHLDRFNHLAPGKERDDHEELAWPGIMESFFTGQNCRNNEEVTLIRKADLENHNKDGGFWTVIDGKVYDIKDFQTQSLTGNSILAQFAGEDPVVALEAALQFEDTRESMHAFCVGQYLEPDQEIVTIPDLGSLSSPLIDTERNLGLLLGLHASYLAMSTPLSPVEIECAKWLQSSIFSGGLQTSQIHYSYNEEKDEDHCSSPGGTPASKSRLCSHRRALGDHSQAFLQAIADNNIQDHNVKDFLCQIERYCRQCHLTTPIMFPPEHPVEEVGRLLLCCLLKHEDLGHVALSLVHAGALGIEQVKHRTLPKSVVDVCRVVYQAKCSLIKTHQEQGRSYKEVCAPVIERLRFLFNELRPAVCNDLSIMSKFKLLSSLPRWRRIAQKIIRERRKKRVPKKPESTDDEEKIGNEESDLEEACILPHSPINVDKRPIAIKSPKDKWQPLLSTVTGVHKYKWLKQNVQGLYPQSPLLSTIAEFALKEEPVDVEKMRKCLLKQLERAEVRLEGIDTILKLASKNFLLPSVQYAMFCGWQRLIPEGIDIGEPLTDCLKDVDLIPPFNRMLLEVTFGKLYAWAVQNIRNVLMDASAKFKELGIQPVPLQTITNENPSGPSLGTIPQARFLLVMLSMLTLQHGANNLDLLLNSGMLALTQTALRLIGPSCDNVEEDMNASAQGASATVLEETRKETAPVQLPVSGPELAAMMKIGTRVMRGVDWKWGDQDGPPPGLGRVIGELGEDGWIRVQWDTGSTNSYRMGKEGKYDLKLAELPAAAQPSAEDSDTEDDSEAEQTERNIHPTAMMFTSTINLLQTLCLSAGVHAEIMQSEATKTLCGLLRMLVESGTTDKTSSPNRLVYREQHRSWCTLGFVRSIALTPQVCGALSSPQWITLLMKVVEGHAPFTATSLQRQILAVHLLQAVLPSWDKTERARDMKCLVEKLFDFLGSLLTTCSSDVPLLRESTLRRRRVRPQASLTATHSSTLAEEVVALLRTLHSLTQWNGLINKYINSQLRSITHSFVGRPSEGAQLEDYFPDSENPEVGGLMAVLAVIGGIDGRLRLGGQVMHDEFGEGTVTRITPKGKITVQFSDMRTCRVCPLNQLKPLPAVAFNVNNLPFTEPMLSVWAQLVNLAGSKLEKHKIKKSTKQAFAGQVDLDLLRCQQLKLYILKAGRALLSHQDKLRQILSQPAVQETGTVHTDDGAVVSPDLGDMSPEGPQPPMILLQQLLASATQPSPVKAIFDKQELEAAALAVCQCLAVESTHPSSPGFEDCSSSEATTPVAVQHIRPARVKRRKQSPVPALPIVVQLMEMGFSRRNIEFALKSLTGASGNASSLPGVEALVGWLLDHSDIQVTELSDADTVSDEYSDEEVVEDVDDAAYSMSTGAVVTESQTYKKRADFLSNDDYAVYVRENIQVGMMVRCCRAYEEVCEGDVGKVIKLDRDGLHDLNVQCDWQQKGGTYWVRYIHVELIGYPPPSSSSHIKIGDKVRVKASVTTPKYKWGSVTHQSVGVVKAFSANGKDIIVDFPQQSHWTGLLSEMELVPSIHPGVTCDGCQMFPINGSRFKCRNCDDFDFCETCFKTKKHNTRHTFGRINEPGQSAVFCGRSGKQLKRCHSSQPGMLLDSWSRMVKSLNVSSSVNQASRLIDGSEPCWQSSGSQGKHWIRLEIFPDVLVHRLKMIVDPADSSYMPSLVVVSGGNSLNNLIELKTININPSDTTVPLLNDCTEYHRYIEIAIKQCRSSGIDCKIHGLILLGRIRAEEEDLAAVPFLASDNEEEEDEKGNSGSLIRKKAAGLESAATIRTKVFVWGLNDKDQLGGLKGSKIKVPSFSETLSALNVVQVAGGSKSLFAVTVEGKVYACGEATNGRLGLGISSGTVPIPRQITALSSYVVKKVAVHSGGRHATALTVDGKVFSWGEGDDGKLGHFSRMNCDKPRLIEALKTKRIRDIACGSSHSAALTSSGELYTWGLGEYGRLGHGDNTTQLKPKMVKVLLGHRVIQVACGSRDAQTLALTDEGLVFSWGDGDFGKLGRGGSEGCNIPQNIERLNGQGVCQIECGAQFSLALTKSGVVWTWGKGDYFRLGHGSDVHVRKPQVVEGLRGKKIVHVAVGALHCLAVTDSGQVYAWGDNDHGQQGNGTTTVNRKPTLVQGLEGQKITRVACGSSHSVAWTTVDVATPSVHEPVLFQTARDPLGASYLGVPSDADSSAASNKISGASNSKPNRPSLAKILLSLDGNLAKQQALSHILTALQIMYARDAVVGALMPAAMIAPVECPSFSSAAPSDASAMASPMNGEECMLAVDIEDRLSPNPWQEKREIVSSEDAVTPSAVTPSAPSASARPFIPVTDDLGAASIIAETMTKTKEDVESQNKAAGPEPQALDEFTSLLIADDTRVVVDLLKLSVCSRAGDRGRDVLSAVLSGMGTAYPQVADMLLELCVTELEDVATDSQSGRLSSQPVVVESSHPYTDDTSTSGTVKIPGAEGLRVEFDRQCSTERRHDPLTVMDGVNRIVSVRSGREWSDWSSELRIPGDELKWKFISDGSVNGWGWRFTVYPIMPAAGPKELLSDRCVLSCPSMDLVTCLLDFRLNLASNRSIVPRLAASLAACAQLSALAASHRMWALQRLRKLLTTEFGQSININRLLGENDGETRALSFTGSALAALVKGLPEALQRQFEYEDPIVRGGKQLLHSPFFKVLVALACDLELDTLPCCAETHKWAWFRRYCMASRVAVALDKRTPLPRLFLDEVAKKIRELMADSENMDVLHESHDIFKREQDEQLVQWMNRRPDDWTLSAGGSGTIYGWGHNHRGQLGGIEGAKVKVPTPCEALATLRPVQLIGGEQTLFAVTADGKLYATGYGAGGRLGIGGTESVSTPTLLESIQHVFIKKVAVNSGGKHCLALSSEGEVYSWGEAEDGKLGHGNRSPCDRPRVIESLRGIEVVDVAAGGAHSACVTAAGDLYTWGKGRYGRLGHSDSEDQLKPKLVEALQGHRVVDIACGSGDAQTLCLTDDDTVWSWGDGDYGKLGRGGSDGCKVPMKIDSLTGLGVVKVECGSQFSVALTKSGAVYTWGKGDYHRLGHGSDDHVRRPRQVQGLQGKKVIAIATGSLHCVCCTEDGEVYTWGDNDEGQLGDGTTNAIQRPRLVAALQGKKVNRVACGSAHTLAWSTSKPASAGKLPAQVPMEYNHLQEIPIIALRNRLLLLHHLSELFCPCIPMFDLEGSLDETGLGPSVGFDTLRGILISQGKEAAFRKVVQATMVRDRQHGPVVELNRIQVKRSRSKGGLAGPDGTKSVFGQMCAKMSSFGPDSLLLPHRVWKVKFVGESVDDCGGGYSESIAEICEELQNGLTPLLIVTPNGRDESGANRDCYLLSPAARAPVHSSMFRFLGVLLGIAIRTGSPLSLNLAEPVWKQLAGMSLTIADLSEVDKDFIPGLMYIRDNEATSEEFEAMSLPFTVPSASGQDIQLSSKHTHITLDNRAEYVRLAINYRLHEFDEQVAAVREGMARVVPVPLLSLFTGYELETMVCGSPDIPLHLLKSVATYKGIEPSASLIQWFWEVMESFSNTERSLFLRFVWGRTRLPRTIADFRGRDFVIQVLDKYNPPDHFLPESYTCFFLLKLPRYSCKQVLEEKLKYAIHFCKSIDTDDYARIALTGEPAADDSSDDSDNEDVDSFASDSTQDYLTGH

T1: GST-TRABID NZF 1 to 3 (AA1-200) (human) (UniProt Q9UGI0)
T1 sequence: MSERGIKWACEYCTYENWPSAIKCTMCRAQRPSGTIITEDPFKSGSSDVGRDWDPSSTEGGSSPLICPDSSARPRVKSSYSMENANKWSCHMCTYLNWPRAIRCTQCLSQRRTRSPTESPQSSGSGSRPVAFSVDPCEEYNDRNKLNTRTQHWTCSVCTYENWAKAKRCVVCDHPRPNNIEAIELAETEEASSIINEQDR

B1: 3xFLAG_TRABID ΔOTU (TRABID 1-339) (domain or fragment, UniProt Q9UGI0 1-339)
chain: MSERGIKWACEYCTYENWPSAIKCTMCRAQRPSGTIITEDPFKSGSSDVGRDWDPSSTEGGSSPLICPDSSARPRVKSSYSMENANKWSCHMCTYLNWPRAIRCTQCLSQRRTRSPTESPQSSGSGSRPVAFSVDPCEEYNDRNKLNTRTQHWTCSVCTYENWAKAKRCVVCDHPRPNNIEAIELAETEEASSIINEQDRARWRGSCSSGNSQRRSPPATKRDSEVKMDFQRIELAGAVGSKEELEVDFKKLKQIKNRMKKTDWLFLNACVGVVEGDLAAIEAYKSSGGDIARQLTADEVRLLNRPSAFDVGYTLVHLAIRFQRQDMLAILLTEVSQQA

Assays:
[1] = molecular target: endogenous HECTD1 (human (endogenous in HEK293ET)) (UniProt Q9ULT8); experiment: co-IP; antibodies to endogenous HECT ligases (4 μg) coupled to Dynabeads protein G; lysates of HEK293ET/HEK293T cells expressing 3xFLAG TRABID constructs; 1 h at RT; four washes in Triton Lysis Buffer; anti-FLAG blot
[2] = molecular target: T1, GST-TRABID NZF 1 to 3 (AA1-200) (human); experiment: pull-down; 20 μg GST protein on glutathione magnetic agarose beads; cleared HEK293T lysate, 2 h at RT in pull-down buffer (150 mM NaCl, 25 mM Tris pH 7.4, 5 mM DTT, 0.1% NP-40) with BSA 0.5 mg/ml; five washes; only the target purified
[3] = molecular target: endogenous HERC2 (human (endogenous in HEK293ET)) (UniProt O95714); experiment: co-IP; antibodies to endogenous HECT ligases (4 μg) coupled to Dynabeads protein G; lysates of HEK293ET/HEK293T cells expressing 3xFLAG TRABID constructs; 1 h at RT; four washes in Triton Lysis Buffer; anti-FLAG blot

Molecule	binding [1]	binding [2]	binding [3]
endogenous HERC2 (from UniProt O95714 1-4834) (enzyme)	no binding	binds weakly	
B1			binds weakly
